Measurements from patent US20160187355A1 (AUGUSTA UNIVERSITY RESEARCH INSTITUTE, published 2016).
Results are given in words; binding and its absence hold for the method and conditions named. In cells and extracts the contact can be indirect. Some entries that bind do so weakly or less than the wild type. One block for each molecule: values may come before it.

Amino acid sequences for entries named in this document (tags omitted). A change or cut given only in a name is not applied to a line headed by its entry. Chains listed by the source or under a name are the forms on record and can include a tag or linker. Residues count along the entry.
UniProt Q9QYP1, residues 21-1723: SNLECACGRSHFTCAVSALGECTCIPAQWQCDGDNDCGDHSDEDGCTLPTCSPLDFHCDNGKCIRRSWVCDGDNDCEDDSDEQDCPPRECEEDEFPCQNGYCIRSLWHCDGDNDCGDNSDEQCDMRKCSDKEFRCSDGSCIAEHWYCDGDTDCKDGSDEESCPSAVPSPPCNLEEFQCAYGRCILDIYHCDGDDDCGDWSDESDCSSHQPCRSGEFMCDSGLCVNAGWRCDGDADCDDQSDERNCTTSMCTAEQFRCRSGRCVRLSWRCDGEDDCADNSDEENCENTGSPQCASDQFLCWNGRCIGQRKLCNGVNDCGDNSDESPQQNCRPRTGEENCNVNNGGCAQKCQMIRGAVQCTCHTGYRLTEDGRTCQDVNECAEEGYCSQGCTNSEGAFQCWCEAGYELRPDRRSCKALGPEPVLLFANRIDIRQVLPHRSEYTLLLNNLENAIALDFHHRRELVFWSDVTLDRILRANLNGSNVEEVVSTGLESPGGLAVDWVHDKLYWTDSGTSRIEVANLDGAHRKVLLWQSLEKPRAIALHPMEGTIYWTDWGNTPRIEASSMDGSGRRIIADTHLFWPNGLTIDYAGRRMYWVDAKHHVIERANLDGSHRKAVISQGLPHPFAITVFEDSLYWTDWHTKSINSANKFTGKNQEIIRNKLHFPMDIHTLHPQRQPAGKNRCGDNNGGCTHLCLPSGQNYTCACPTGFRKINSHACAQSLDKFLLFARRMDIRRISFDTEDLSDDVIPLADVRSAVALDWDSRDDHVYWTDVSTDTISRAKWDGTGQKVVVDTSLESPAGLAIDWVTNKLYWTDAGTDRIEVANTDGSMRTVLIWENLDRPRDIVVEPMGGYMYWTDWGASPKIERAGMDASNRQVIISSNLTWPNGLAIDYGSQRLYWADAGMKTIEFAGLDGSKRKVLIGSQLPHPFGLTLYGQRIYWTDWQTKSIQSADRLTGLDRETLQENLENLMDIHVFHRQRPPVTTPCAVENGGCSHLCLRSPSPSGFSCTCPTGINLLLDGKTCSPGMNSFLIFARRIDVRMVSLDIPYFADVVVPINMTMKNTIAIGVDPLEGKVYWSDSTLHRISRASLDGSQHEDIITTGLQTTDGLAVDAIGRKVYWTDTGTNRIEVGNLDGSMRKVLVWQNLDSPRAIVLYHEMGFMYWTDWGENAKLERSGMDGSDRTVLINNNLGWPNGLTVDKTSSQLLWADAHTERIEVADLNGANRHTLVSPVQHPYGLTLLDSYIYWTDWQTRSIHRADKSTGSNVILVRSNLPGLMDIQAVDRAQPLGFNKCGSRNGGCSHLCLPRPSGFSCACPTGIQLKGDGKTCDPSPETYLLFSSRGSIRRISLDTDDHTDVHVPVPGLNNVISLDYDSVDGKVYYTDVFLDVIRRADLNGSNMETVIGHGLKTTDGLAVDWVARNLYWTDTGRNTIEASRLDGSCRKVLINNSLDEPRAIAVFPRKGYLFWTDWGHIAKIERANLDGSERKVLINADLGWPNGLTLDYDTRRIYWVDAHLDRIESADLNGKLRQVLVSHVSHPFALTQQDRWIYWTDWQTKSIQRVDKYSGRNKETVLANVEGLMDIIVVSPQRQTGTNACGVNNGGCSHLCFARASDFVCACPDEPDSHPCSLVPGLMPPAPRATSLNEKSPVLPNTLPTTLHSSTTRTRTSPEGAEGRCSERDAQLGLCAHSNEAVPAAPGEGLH
UniProt Q8VI56, residues 21-1905: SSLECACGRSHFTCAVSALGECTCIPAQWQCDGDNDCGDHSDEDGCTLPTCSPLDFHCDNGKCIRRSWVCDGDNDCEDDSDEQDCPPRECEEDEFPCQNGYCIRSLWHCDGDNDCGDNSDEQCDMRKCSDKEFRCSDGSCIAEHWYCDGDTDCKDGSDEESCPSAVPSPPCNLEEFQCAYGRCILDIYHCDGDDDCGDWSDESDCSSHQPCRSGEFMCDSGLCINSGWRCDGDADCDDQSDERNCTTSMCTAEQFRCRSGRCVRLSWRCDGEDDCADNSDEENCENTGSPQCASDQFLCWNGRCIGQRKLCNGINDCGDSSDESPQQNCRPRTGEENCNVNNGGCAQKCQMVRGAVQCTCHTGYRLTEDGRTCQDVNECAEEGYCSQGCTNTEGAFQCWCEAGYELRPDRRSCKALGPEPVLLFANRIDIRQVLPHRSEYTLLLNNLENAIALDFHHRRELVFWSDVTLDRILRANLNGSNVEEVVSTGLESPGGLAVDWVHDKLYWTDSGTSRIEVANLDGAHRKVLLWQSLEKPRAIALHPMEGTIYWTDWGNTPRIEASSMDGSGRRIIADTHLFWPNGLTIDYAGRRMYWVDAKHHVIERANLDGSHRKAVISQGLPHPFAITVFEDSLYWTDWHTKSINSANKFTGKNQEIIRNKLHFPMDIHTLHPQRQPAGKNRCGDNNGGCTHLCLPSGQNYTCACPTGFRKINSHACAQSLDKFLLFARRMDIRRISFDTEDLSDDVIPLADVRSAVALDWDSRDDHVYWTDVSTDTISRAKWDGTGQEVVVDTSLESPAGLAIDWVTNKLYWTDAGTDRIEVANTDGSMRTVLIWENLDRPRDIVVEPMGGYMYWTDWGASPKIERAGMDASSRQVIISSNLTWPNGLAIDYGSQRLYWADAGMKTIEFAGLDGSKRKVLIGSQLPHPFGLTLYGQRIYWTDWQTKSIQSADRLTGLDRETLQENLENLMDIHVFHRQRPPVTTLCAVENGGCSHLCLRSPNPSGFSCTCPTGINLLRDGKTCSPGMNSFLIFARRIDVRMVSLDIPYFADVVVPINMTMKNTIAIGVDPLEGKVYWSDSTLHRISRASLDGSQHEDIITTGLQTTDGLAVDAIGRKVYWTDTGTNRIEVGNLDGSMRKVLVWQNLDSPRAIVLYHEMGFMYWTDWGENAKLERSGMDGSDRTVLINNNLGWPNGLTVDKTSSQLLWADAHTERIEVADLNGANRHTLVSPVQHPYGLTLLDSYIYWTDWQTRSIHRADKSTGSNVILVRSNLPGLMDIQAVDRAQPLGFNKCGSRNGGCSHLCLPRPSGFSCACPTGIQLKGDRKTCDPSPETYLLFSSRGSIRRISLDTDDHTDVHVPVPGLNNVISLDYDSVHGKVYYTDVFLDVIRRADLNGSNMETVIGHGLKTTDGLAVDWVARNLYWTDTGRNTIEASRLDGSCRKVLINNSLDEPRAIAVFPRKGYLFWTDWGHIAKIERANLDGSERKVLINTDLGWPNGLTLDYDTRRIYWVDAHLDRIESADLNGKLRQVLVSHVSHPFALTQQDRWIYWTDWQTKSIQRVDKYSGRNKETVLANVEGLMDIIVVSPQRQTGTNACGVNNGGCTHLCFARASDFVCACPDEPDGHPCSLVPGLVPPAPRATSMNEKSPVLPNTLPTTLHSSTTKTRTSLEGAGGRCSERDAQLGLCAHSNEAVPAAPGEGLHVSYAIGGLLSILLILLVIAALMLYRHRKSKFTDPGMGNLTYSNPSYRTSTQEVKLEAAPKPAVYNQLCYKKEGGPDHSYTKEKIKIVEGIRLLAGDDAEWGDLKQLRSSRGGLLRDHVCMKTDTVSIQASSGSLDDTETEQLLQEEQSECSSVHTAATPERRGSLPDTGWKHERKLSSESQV
Flag-nAgrin (P25304, form named): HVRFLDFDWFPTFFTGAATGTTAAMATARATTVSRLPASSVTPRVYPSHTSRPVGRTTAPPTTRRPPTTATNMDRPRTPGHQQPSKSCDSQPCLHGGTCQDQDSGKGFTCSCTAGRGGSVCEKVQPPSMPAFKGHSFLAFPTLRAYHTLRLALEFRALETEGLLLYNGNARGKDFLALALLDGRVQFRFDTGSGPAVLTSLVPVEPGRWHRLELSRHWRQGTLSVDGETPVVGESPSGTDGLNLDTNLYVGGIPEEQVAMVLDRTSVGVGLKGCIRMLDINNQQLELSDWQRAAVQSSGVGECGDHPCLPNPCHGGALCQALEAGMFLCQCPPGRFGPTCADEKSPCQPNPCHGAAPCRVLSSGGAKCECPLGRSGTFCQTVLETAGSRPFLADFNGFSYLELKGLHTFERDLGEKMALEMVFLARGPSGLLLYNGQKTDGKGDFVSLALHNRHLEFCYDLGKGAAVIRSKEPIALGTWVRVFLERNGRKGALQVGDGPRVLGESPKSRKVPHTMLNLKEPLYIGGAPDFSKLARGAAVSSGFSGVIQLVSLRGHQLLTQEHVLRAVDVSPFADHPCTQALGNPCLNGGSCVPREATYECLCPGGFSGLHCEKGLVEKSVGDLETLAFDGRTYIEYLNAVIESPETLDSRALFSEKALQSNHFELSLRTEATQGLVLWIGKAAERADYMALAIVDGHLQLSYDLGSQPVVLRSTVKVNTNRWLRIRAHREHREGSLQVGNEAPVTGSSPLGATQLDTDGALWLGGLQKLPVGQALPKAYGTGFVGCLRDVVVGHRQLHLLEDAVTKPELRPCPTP

Key:
LRP4N-Myc (rat) = LRP4N-Myc (rat) (UniProt Q9QYP1); test: bead pull-down, anti-Myc immunoblot
[1] = molecular target: endogenous LRP4 of mouse muscle cells (mouse) (UniProt Q8VI56); test: co-immunoprecipitation with rabbit anti-LRP4 antibody from mouse muscle homogenates
[2] = molecular target: endogenous LRP4 of mouse muscle cells (mouse) (UniProt Q8VI56); test: co-immunoprecipitation from C2C12 myotubes with rabbit anti-LRP4 antibody with or without neuronal agrin, MuSK blot quantified (quantification of FIG. 7A)
[3] = molecular target: endogenous LRP4 of mouse muscle cells (mouse) (UniProt Q8VI56); test: co-immunoprecipitation from mouse muscle homogenates
[4] = molecular target: endogenous LRP4 of mouse muscle cells (mouse) (UniProt Q8VI56); test: co-immunoprecipitation from mouse muscle homogenates with rabbit anti-LRP4 antibody, blot for MuSK
[5] = molecular target: endogenous LRP4 of mouse muscle cells (mouse) (UniProt Q8VI56); test: co-immunoprecipitation with rabbit anti-LRP4 antibody from C2C12 myotube lysates, with or without neuronal agrin
[6] = molecular target: endogenous LRP4 of mouse muscle cells (mouse) (UniProt Q8VI56); test: co-immunoprecipitation with anti-LRP4 antibody from C2C12 myotubes; increased in agrin-stimulated myotubes

binding (LRP4N-Myc (rat)): binds
Molecule: Flag-nAgrin (from UniProt P25304 1137-1951) (ligand)

binding [1]: binds
binding [2]: binds
binding [3]: binds
binding [4]: binds
binding [5]: binds
binding [6]: binds
B1: endogenous MuSK of mouse muscle cells (receptor, UniProt Q61006 22-868, looked up)
chain: EKLPKAPVITTPLETVDALVEEVATFMCAVESYPQPEISWTRNKILIKLFDTRYSIRENGQLLTILSVEDSDDGIYCCIANNGVGGAVESCGALQVKMKPKITRPPINVKIIEGLKAVLPCTTMGNPKPSVSWIKGDNALRENSRIAVLESGSLRIHNVQKEDAGQYRCVAKNSLGTAYSKLVKLEVEVFARILRAPESHNVTFGSFVTLRCTAIGIPVPTISWIENGNAVSSGSIQESVKDRVIDSRLQLFITKPGLYTCIATNKHGEKFSTAKAAATVSIAEWSKSQKDSQGYCAQYRGEVCDAVLAKDALVFFNTSYRDPEDAQELLIHTAWNELKAVSPLCRPAAEALLCNHLFQECSPGVVPTPMPICREYCLAVKELFCAKEWQAMEGKAHRGLYRSGMHLLPVPECSKLPSMHRDPTACTRLPYLDYKKENITTFPSITSSRPSADIPNLPASTSSFAVSPAYSMTVIISIVSSFALFALLTIATLYCCRRRKEWKNKKRESTAVTLTTLPSELLLDRLHPNPMYQRMPLLLNPKLLSLEYPRNNIEYVRDIGEGAFGRVFQARAPGLLPYEPFTMVAVKMLKEEASADMQADFQREAALMAEFDNPNIVKLLGVCAVGKPMCLLFEYMAYGDLNEFLRSMSPHTVCSLSHSDLSTRARVSSPGPPPLSCAEQLCIARQVAAGMAYLSERKFVHRDLATRNCLVGETMVVKIADFGLSRNIYSADYYKADGNDAIPIRWMPPESIFYNRYTTESDVWAYGVVLWEIFSYGLQPYYGMAHEEVIYYVRDGNILACPENCPLELYNLMRLCWSKLPADRPSFCSIHRILQRMCERAEGTVGV
